The supplement of paper PMC10849652
Some of the results follow.

Protein sequences, listed by entry. Tags and fused reporters are not part of them. Lines headed by an entry give the natural chain unless they say otherwise; changes in a name come on top.
UniProt Q8IWJ2: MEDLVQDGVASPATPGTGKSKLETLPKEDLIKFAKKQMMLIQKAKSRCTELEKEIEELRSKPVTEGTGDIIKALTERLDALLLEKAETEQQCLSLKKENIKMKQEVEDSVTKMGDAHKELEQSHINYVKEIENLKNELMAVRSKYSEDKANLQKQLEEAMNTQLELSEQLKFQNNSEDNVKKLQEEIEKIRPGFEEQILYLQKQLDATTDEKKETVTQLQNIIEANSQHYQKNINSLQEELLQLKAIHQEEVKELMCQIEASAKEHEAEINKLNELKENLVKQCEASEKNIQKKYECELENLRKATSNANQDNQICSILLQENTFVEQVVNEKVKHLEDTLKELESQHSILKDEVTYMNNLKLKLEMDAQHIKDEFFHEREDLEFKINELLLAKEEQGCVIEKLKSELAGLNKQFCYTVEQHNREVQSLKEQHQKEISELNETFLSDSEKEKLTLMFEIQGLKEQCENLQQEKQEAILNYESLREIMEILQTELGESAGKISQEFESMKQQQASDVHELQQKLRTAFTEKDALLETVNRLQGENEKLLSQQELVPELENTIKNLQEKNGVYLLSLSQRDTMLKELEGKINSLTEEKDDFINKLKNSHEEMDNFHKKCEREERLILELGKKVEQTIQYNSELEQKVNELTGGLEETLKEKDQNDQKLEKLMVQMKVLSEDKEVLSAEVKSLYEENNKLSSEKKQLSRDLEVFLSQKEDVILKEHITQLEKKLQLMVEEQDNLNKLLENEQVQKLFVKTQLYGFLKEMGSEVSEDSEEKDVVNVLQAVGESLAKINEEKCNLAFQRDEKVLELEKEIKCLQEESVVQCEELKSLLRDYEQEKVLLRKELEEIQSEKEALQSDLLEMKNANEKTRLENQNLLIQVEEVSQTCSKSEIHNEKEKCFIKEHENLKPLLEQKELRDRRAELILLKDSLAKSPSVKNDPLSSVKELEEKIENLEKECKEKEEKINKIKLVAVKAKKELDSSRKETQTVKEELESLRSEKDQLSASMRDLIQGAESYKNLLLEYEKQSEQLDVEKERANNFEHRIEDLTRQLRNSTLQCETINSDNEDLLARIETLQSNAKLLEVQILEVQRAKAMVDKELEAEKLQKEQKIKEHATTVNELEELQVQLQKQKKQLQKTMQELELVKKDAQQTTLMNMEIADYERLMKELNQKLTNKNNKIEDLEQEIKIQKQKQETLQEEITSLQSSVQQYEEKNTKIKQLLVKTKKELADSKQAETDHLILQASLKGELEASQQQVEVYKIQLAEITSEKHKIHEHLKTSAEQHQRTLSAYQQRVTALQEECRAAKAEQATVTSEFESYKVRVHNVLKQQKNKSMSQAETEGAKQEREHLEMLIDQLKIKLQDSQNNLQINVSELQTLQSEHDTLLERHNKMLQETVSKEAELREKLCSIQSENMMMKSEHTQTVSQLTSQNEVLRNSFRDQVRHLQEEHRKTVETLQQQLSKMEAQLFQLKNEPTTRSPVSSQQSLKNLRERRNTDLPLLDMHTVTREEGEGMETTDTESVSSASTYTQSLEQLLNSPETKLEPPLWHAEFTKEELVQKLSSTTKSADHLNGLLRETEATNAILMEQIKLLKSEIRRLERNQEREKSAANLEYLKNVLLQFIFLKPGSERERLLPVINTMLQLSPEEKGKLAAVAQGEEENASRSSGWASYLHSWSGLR
UniProt Q9H0R8, whole entry, looked up: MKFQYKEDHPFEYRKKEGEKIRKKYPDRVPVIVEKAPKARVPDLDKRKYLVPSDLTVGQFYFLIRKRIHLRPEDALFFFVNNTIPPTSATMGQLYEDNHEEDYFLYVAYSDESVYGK
UniProt O14976: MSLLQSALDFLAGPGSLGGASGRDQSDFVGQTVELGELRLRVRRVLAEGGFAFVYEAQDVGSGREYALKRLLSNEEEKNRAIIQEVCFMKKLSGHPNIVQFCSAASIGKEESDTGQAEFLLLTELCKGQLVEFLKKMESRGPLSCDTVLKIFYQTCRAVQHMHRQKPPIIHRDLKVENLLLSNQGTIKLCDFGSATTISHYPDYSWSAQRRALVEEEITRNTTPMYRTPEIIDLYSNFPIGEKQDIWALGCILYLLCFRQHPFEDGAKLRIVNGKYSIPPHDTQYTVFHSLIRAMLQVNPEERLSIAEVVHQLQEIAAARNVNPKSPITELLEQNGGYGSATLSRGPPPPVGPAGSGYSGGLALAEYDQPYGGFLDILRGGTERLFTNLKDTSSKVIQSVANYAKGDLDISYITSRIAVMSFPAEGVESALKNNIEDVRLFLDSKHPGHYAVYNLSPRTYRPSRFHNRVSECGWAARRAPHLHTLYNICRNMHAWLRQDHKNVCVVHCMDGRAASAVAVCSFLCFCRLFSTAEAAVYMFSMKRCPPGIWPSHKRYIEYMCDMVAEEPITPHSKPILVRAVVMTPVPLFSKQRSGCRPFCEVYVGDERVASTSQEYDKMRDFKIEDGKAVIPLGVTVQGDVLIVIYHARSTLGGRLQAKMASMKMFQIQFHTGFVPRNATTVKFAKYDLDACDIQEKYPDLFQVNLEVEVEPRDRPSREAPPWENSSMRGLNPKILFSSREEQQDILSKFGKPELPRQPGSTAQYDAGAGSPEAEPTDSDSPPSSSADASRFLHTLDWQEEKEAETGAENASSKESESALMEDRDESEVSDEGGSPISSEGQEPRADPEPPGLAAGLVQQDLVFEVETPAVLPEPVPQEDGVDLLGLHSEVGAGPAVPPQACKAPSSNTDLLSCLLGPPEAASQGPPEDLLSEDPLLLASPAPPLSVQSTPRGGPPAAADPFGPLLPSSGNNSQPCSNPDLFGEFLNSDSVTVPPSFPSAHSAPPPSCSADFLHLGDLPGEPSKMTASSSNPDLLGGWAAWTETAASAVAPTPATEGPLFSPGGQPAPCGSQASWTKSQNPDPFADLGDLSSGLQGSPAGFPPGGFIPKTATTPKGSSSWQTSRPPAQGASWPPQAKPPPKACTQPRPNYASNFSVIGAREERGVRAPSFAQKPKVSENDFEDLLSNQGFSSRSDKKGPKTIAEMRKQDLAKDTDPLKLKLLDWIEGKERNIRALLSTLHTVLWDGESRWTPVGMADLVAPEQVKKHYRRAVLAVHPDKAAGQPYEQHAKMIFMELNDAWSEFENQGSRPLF
UniProt P48507: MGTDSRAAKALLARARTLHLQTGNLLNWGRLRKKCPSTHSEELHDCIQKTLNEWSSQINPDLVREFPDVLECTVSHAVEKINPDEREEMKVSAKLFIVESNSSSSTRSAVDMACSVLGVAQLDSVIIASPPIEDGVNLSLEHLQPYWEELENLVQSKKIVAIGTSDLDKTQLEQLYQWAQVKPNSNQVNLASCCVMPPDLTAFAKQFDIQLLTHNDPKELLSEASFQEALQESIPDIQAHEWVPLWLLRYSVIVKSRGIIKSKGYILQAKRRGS
UniProt O95749: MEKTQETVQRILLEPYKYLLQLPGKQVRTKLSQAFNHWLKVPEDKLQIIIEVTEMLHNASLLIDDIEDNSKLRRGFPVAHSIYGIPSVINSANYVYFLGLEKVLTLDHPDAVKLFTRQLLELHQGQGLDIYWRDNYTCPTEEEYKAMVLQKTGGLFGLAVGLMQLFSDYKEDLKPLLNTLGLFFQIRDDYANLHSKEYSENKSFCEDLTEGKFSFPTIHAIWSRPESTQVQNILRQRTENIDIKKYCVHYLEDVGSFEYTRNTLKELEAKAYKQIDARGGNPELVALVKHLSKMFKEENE
UniProt Q9BTY2: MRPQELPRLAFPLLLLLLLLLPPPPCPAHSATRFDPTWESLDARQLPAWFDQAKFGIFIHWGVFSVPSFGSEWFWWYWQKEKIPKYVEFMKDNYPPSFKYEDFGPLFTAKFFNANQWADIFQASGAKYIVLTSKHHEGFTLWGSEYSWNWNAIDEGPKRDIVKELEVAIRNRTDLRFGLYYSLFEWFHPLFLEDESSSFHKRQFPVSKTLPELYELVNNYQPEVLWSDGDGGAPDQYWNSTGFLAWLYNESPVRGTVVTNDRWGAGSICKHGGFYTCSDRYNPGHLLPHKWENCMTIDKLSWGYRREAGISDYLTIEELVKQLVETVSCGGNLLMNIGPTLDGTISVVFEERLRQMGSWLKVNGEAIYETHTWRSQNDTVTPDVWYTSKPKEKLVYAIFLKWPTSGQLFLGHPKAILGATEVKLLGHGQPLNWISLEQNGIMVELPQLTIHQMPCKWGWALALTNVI
UniProt Q13069: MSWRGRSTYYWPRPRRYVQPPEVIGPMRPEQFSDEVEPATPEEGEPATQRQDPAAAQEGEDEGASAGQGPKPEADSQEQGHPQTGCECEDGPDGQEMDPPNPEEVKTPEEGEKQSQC
UniProt P85037: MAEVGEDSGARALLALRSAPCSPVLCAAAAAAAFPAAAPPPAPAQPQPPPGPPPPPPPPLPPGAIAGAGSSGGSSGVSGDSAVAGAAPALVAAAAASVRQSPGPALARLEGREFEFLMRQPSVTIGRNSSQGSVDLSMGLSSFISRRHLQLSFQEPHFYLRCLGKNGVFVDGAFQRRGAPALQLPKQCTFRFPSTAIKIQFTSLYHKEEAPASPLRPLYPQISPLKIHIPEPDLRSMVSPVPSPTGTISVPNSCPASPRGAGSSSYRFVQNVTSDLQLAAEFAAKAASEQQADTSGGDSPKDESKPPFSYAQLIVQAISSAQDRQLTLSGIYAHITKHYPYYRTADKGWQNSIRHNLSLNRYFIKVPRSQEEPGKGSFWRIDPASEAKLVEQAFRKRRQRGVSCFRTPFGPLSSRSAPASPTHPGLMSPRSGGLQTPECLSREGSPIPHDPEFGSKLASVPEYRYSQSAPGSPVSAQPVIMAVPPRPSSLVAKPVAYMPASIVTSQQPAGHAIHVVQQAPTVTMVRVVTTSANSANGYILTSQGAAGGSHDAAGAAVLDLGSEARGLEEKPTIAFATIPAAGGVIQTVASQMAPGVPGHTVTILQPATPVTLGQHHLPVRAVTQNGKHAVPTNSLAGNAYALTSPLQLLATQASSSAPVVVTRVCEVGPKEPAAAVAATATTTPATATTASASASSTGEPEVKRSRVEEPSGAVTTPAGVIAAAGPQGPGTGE
UniProt Q14376: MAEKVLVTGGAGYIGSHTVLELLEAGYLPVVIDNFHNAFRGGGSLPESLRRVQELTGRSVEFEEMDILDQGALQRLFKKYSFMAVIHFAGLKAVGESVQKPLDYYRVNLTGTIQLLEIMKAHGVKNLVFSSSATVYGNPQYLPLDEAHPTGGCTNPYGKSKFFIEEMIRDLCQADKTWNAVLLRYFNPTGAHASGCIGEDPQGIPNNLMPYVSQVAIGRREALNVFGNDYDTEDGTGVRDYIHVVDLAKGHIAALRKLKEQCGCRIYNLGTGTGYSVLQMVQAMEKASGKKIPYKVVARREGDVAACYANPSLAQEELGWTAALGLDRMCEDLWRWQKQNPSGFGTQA
UniProt P54803: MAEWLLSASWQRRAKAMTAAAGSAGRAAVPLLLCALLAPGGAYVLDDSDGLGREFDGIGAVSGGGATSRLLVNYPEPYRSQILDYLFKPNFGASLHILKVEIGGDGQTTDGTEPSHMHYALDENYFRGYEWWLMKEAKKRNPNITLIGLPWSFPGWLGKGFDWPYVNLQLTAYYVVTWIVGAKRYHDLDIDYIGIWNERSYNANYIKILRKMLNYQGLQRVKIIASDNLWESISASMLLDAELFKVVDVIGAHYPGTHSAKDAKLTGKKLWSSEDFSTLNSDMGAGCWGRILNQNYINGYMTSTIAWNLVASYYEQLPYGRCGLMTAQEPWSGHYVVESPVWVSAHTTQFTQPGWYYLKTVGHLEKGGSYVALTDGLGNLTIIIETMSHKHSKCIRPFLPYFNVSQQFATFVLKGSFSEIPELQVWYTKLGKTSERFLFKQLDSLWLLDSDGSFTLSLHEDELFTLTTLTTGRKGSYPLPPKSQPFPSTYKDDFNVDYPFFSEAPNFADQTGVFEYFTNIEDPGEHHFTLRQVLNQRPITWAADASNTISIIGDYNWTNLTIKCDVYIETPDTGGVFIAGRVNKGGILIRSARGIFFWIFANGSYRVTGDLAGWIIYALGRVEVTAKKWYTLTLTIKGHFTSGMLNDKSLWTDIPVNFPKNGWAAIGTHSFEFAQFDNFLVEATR
UniProt Q9UN86: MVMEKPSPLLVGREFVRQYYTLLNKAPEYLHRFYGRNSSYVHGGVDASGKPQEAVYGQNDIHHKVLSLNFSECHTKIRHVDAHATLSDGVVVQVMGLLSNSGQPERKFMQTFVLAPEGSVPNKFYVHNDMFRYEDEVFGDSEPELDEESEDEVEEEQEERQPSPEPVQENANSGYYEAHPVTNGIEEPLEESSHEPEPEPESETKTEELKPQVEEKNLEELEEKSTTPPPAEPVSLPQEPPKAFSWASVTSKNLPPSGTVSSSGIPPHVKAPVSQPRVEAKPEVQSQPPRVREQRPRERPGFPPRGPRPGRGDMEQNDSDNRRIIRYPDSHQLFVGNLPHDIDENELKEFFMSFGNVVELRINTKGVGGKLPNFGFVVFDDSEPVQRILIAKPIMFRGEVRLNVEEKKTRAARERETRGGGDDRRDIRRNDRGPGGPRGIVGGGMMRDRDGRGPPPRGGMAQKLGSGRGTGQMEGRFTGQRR

Columns and labels:
Experiment in all cases: log2 fold change, soluble protein after heating vs DMSO (PISA); higher = thermal stabilisation; K562 cells, 10 uM, 30 min; active = over 0.2 and 3.5 SD of the protein, either way, in both replicates (recomputed)
[1] = compound: CC1=C(C=C(C=C1)NC(=O)C2=CC(=CC=C2)C(C)(C)C#N)NC3=CC4=C(C=C3)N=CN(C4=O)C
Outline: (§1)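 K562 cells at 2×10^6 cells/mL were given 10 μM compound for 30 min. Aliquots then went through 3 min of heating across 48°C-58°C, were pooled, and were extracted in PBS with 0.5% NP-40 at 4°C, and the supernatant after 21,000xg for 90 min was quantified by TMTpro 16plex LC-MS/MS with channel sums equalised. Thermal stability relative to control samples, from duplicates, is given as log2 fold change.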

[2] = compound: CC1=C(C=C(C=C1)NC(=O)C2=CC(=CC=C2)N(C)C)NC(=O)C3=CC=C(C=C3)O
Outline: as §1

[3] = compound: CC1=CC=C(C=C1)SC2=C3C=C(SC3=CN=C2)C(=O)N
Outline: as §1

[4] = compound: CC1=NC(=CC=C1)C2=C(N=C(N2)C(C)(C)C)C3=CC4=NC=CN=C4C=C3
Outline: as §1

Nexturastat A = compound: CCCCN(Cc1ccc(C(=O)NO)cc1)C(=O)Nc1ccccc1 [Nexturastat A]
Outline: as §1

vemurafenib = compound: CCCS(=O)(=O)Nc1ccc(F)c(C(=O)c2c[nH]c3ncc(-c4ccc(Cl)cc4)cc23)c1F [vemurafenib]
Outline: as §1

[5] = compound: CCCS(=O)(=O)Nc1ccc(F)c(C(=O)c2c[nH]c3ncc(Cl)cc23)c1F
Outline: as §1

[6] = compound: CCCc1cc(C)[nH]c(=O)c1CNC(=O)c1cc(-c2ccnc(N3CCN(C)CC3)c2)cc2c1cnn2C(C)C
Outline: as §1

givinostat = compound: CCN(CC)Cc1ccc2cc(COC(=O)Nc3ccc(C(=O)NO)cc3)ccc2c1 [givinostat]
Outline: as §1

barasertib = compound: CCN(CCCOc1ccc2c(Nc3cc(CC(=O)Nc4cccc(F)c4)[nH]n3)ncnc2c1)CCOP(=O)(O)O [barasertib]
Outline: as §1

Measured: log2 fold change

GCC2 (UniProt Q8IWJ2)
active: Nexturastat A 0.322
inactive: [1] -0.004 | [2] -0.012 | [3] -0.016 | [4] -0.031 | vemurafenib 0.025 | [5] 0.01 | [6] 0.073 | givinostat 0.05 | barasertib -0.037

GATB (UniProt O75879)
inactive: [1] 0.02 | [2] -0.125 | [3] 0.196 | [4] 0.405 | Nexturastat A 0.142 | vemurafenib 0.07 | [5] 0.17 | [6] 0.031 | givinostat 0.169

GABARAPL1 isoform 2 (UniProt Q9H0R8)
inactive: [1] -0.008 | [2] 0.003 | [3] 0.006 | [4] 0.002 | Nexturastat A -0.013 | vemurafenib -0.016 | [5] -0.025 | [6] -0.007 | givinostat 0.044 | barasertib 0.021

Fetched one by one from above, 2 records:
GATB (UniProt O75879)
inactive: [1] 0.02 | [2] -0.125 | [3] 0.196 | [4] 0.405 | Nexturastat A 0.142 | vemurafenib 0.07 | [5] 0.17 | [6] 0.031 | givinostat 0.169

GABARAPL1 isoform 2 (UniProt Q9H0R8)
inactive: [1] -0.008 | [2] 0.003 | [3] 0.006 | [4] 0.002 | Nexturastat A -0.013 | vemurafenib -0.016 | [5] -0.025 | [6] -0.007 | givinostat 0.044 | barasertib 0.021

Following part

GAK (UniProt O14976)
inactive: [1] 0.214 | [2] 0.038 | [3] -0.337 | [4] -0.14 | Nexturastat A 0.452 | vemurafenib -0.06 | [5] 0.114 | [6] 0.17 | givinostat 0.64

GARS1 (UniProt H7C443)
inactive: [1] -0.406 | [2] 0.046 | [3] -0.173 | [4] -0.303 | Nexturastat A 0.056 | vemurafenib -0.162 | [5] -0.24 | [6] -0.252 | givinostat -0.012

GALNS (UniProt P34059)
inactive: [1] -0.123 | [2] 0.044 | [3] 0.031 | [4] -0.014 | Nexturastat A 0.083 | vemurafenib -0.103 | [5] 0.092 | [6] 0.032 | givinostat -0.031 | barasertib 0.016

GCLM (UniProt P48507)
inactive: [1] 0.044 | [2] -0.04 | [3] 0.019 | [4] 0.057 | Nexturastat A -0.006 | vemurafenib 0.1 | [5] 0.099 | [6] 0.002 | givinostat 0.074 | barasertib 0.066

GGPS1 (UniProt O95749)
inactive: [1] 0.005 | [2] 0.025 | [3] -0.015 | [4] 0.005 | Nexturastat A -0.013 | vemurafenib -0.005 | [5] -0.02 | [6] -0.004 | givinostat -0.115 | barasertib 0

GALNT5 (UniProt Q7Z7M9)
inactive: [1] -0.006 | [2] -0.025 | [3] 0.004 | [4] -0.008 | Nexturastat A -0.051 | vemurafenib 0.025 | [5] -0.024 | [6] 0.035 | givinostat 0.006 | barasertib 0.02

FUCA2 (UniProt Q9BTY2)
inactive: [1] 0.015 | [2] 0 | [3] 0.016 | [4] -0.02 | Nexturastat A -0.025 | vemurafenib 0.005 | [5] -0.053 | [6] -0.025 | givinostat -0.028 | barasertib -0.01

GAGE5 (UniProt Q13069)
inactive: [1] -0.067 | [2] -0.031 | [3] 0 | [4] 0.009 | Nexturastat A -0.031 | vemurafenib 0.052 | [5] -0.067 | [6] -0.061 | givinostat -0.033 | barasertib 0.037

FOXK1 (UniProt P85037)
inactive: [1] 0.323 | [2] -0.01 | [3] -0.362 | [4] -0.063 | Nexturastat A -0.091 | vemurafenib 0.097 | [5] 0.182 | [6] -0.129 | givinostat -0.025 | barasertib -0.221

GALE (UniProt Q14376)
inactive: [1] 0.034 | [2] -0.009 | [3] -0.005 | [4] 0.032 | Nexturastat A -0.06 | vemurafenib 0.035 | [5] 0.003 | [6] -0.069 | givinostat -0.133 | barasertib 0.049

GALC (UniProt P54803)
inactive: [1] 0.002 | [2] -0.032 | [3] 0 | [4] -0.013 | Nexturastat A 0.012 | vemurafenib -0.03 | [5] -0.03 | [6] -0.049 | givinostat 0.036 | barasertib 0.002

G3BP2 (UniProt Q9UN86)
inactive: [1] 0.093 | [2] 0.043 | [3] -0.039 | [4] 0.034 | Nexturastat A 0.208 | vemurafenib -0.01 | [5] 0.008 | [6] 0.114 | givinostat -0.021 | barasertib -0.134
